The values are deposited in ChEMBL (CHEMBL3988442, “University of Dundee, Small-Polar-MMV Screening Library” (2021)).

Mtb growth Cornell: 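Whole-cell assay for inhibitors of Mycobacterium tuberculosis growth, labelled Cornell in the record; the read-out is not stated. The concentration is filed as 10 mM, unlikely as a test dose, so the dose is not known. Higher means stronger inhibition (inferred from two other growth screens of the library). About 53,000 compounds were tested under these conditions; 1.7% (about 900) showed 50% or more at least once.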
Mtb heat-shock: 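Assay on Mycobacterium tuberculosis, filed only as a heat shock assay from Cornell; the read-out is not stated. The concentration is filed as 10 mM, unlikely as a test dose, so the dose is not known. Direction is inferred from retests: higher values go with stronger inhibition. Size under these conditions: about 69,000 compounds, about 930 of them at 50% or above in at least one test.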

Results are given as percent effect.
The record does not define 0% and 100%; most values in the screen are far below 50% and negative numbers occur (in some assays of this library far below -100).
The compounds are a random part of those screened.

Result for CN(Cc1cc(-c2cccnc2)no1)C(=O)c1cccn1C was Mtb growth Cornell: 5.504%; Mtb heat-shock: 7.862%.
Result for CC(C)N1CCN(C(=O)Nc2cnn(CC(N)=O)c2)CC1 was Mtb growth Cornell: -4.803%; Mtb heat-shock: 10.74%.
Result for COc1ccc(N2CCN(C(=O)c3cc(=O)c(OC)c[nH]3)CC2)cc1 was Mtb growth Cornell: 41.94%; Mtb heat-shock: -8.706%.
Result for O=C1NCCN2CCN(Cc3ccc(Cl)c(Cl)c3)CC12 (configuration not stated) was Mtb growth Cornell: 17.51%; Mtb heat-shock: -13.32%.
Result for CCc1ncc2c(n1)CN(CCCc1nc3ccccc3o1)CC2 was Mtb heat-shock: -7.433%.
Result for Cn1cc(C(NCc2ccc(F)cc2)c2cccc(F)c2)cn1 (configuration not stated) was Mtb growth Cornell: 25.64%; Mtb heat-shock: -7.107%.
Result for Cc1cc(C)c(CNC(=O)N2CCC(N3CCCCC3)CC2)c(=O)[nH]1 was Mtb growth Cornell: -8.017%; Mtb heat-shock: -1.277%.
Result for Cc1ccc(C(=O)N2CCN(Cc3ccccc3)CC2)n1C was Mtb growth Cornell: -13.68%; Mtb heat-shock: -19.86%.
Result for CN(CCNc1cc(N2CCCC2CO)ncn1)Cc1ccccc1 (configuration not stated) was Mtb growth Cornell: -15.94%; Mtb heat-shock: -24.89%.
Result for O=C(CCc1ccsc1)NCc1ccnc(OC2CCOCC2)c1 was Mtb growth Cornell: -5.834%; Mtb heat-shock: -27%.
Result for CN(Cc1ccc(Br)s1)Cn1nc(-c2ccccc2)oc1=O was Mtb heat-shock: 5.048%.
Result for CSc1cc2c(cc1NC(=O)NCC1CCOC1)OCCO2 (configuration not stated) was Mtb heat-shock: -0.1789%.
Result for CCC(CC)N1CCC(c2[nH]ncc2S(C)(=O)=O)C1 (configuration not stated) was Mtb growth Cornell: -12.1%; Mtb heat-shock: 0.2968%.
Result for CN(Cc1cc(-c2ccccc2)no1)CC1CCCN1c1cccnn1 (configuration not stated) was Mtb growth Cornell: 8.778%; Mtb heat-shock: 6.938%.
Result for O=C(CC1=CSC2=NCCN12)N1CCCC(CCc2cccc(F)c2)C1 (configuration not stated) was Mtb growth Cornell: -12.18%; Mtb heat-shock: -15.11%.
Result for CCOCCCNC(=O)c1cc(OC)c2ccoc2c1 was Mtb heat-shock: -22.56%.
Result for Cc1cc(C(=O)Nc2ccnc(OC3CCOC3)c2)c(C)o1 (configuration not stated) was Mtb growth Cornell: 23.32%; Mtb heat-shock: -12.16%.
Result for Cc1nc(C)n(CC2CCCCN2CC(=O)Nc2nnc(C)s2)n1 (configuration not stated) was Mtb heat-shock: -6.302%.
Result for CSc1ccc(C(=O)C2CCCN(C(=O)CCn3cnnn3)C2)cc1 (configuration not stated) was Mtb growth Cornell: -15.4%; Mtb heat-shock: -2.171%.
Result for CC(C)Oc1cccc(CNC(=O)N2CCC(N3CC=CC3)C2)c1 (configuration not stated) was Mtb growth Cornell: -24.86%; Mtb heat-shock: -23.59%.
Result for O=C(NCc1cccnc1)Nc1cc(C(F)(F)F)c[nH]c1=O was Mtb heat-shock: 16.68%.
Result for Cc1c(C(C)NCc2cnn(C)c2)cnn1-c1ccccc1 (configuration not stated) was Mtb growth Cornell: 6.205%; Mtb heat-shock: -10.62%.

2 of the entries, repeated:

* CC(C)N1CCN(C(=O)Nc2cnn(CC(N)=O)c2)CC1 | Mtb growth Cornell: -4.803%; Mtb heat-shock: 10.74%
* COc1ccc(N2CCN(C(=O)c3cc(=O)c(OC)c[nH]3)CC2)cc1 | Mtb growth Cornell: 41.94%; Mtb heat-shock: -8.706%